# The whole screen tested about 400,000 compounds, of which about 13,000 (3.2%) were called active. Inconclusive results, whose numbers are uncertain, are shown with a selection of clear calls. Calls follow the shape of the dose curve; as a rule, active = well fitted cell-killing curve with a large enough effect; inconclusive = small, poorly fitted or top-dose-only effect, or effect the other way; inactive = flat fitted curve, though single readings scatter. A potency beside an inconclusive call is a rough fit, not a confirmed value.
# Assay: qHTS assay for MDR1-selective chemotherapeutics: Primary screen using the drug-selected MDR subline cells KB-V1; also: nearly all actives have a fitted effect of over 60% in size
# Details: KB-V1 MDR cells viability, CellTiter-Glo, 72 h; activity change, negative = cytotoxicity: at 46.1 µM (top of the series)
# Summary of the method: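 Luminescent ATP read-out (CellTiter-Glo, 10 min) measures survival of drug-selected KB-V1 MDR cells after 72 h, 37 degrees C compound exposure. Medium: phenol-red-free DMEM, 10% FBS. Values from fitted concentration-response curves.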
# % is scaled to controls: 0 for no effect and ±100 for the full control effect; potency is read from the fitted curve at half-maximal effect.
Compound,"activity change, negative = cytotoxicity",Potency
O=S(=O)(Nc1cccc(CCc2ccccn2)c1)c1ccc2ccccc2c1,inactive: -27.9%,
Clc1ccc2[nH]c3c(c2c1)CCc1cn[nH]c1-3,,"inconclusive: 25.9 µM [cytotoxic, single point]"
Nc1nc(N)c(N=Nc2ccccc2)c(=O)[nH]1,inactive: -20.8%,
Cc1cccc(CN2C(=O)/C(=C\c3ccc(C(=O)NCCN4CCOCC4)cc3)Sc3ccccc32)c1,,"inconclusive: 5.8 µM [cytotoxic, partial curve, poor fit]"
COc1ccccc1OCCNC(=O)C1CC(=O)N(c2ccc3c(c2)OCCO3)C1 (centres undefined),,"inconclusive: 29.1 µM [cytotoxic, partial curve, poor fit]"
COc1ccccc1-c1cnn2c(NC3CCCC3)cc(C)nc12,,"inconclusive: 9.2 µM [cytotoxic, partial curve]"
C=CCn1cnc2c(nnn2-c2ccc(C)c(Cl)c2)c1=O,,"inconclusive: 29.1 µM [cytotoxic, single point]"
COc1cccc(N2CCN(C(=O)CCCCCNc3nc(=S)[nH]c4ccccc34)CC2)c1,,active: 10.3 µM
Cc1cc(C)n2nc(SC(C)C(=O)N3CCOCC3)nc2n1 (centres undefined),,"inconclusive: 32.6 µM [rising, single point]"
CCOC(=O)CC1C(=O)NCCN1C(=O)c1cccc(C(F)(F)F)c1 (centres undefined),,"inconclusive: 9.2 µM [rising, partial curve, poor fit]"
O=C(CCNC(=O)c1ccco1)Nc1ccccc1N1CCOCC1,inactive: 0%,
Cc1ccc(C(=O)NC(=S)N2CCN(C)CC2)cc1,inactive: -3.76%,
COc1ccc(CC(=O)Nc2nnc(C(C)(C)C)s2)cc1OC,,"inconclusive: 23.1 µM [cytotoxic, single point]"
CN(C(=O)C(C)(C)C)c1ccc(OCC(=O)N2CCc3ccccc3C2)cc1,,active: 4.61 µM
COc1cccc(/C=C/C(=O)NCCc2ccc(OC)c(OC)c2)c1,,"inconclusive: 14.6 µM [cytotoxic, single point]"
Cc1ccc(S(=O)(=O)N(C)C)cc1NC(=O)COC(=O)/C=C/c1ccc(F)cc1,,"inconclusive: 29.1 µM [rising, single point]"
Cc1nc2ccccc2c2c1CC(C(C)(Cl)Br)O2 (centres undefined),,active: 4.61 µM
O=C(COc1ccc(Cl)cc1Cl)c1ccc[nH]1,inactive: 0%,
O=Cc1cc(N=Nc2ccccc2Cl)ccc1O,,"inconclusive: 16.4 µM [cytotoxic, partial curve, poor fit]"
CCc1ccccc1NC(=O)Cn1nnc(-c2cccnc2)n1,,"inconclusive: 20.6 µM [cytotoxic, single point]"
COc1ccc(CCNc2cc(-c3ccccc3)nc3ncnn23)cc1,,active: 2.59 µM
CC1(C(=O)NCc2ccc(C(F)(F)F)cc2)CCN1C1Cc2ccccc2C1 (centres undefined),inactive: 2.06%,
Cc1cc2c(nn1)CCC/C2=N\O,,"inconclusive: 5.17 µM [rising, partial curve, poor fit]"

Compound,"activity change, negative = cytotoxicity",Potency
Cc1cc(OC(C)C(=O)N2CCN(c3ccc(F)cc3)CC2)c2c(C)c(C)c(=O)oc2c1 (centres undefined),,"inconclusive: 32.6 µM [cytotoxic, single point]"
CC(C)(C)c1cc[n+](-c2[nH]c(=O)sc2/C=N/NC(=O)c2ccccc2[O-])cc1,,"inconclusive: 29.1 µM [cytotoxic, single point]"
CCCSC(=O)N(CC)CC(=O)Nc1c(CC)cccc1CC,,"inconclusive: 29.1 µM [cytotoxic, single point]"
O=C(NC(=S)Nc1ccccc1Br)C1CCCCC1,,active: 16.4 µM
CC(=O)N1CCN(C(=O)CCCNC(=O)c2ccc(Cl)cc2)CC1,,"inconclusive: 13 µM [rising, partial curve]"
CS(=O)(=O)Nc1ccc(C(=O)Nc2ccccc2Sc2ccccc2)cc1,,"inconclusive: 18.4 µM [cytotoxic, single point]"
O=C(NNC(=S)Nc1ccc(Br)cc1)c1ccc(N2CCOCC2)c([N+](=O)[O-])c1,inactive: -28.1%,
CC(=O)NC(CSC(CC(=O)c1ccco1)c1ccc(C)cc1)C(=O)O (centres undefined),inactive: 12.1%,
C=C1CCC[C@]2(C)C[C@H]3OC(=O)C(CN(Cc4ccc(OC)c(OC)c4)CC(C)O)[C@H]3CC12 (some centres undefined),inactive: -2.35%,
O=C(CN(CCc1ccccc1)S(=O)(=O)c1ccc(Br)cc1)N/N=C/c1ccc2c(c1)OCO2,,"inconclusive: 2.06 µM [cytotoxic, full curve, poor fit]"
CC(=O)NC(c1cccc(F)c1)c1nc(-c2cc3ccccc3o2)cs1 (centres undefined),,"inconclusive: 20.6 µM [cytotoxic, single point]"
CCOC(=O)c1[nH]cnc1C(=O)Nc1ccccc1OC,,"inconclusive: 18.4 µM [cytotoxic, partial curve, poor fit]"
COc1ccccc1N(C)S(=O)(=O)c1ccc(C(=O)N2CCC2)cc1,,"inconclusive: 18.4 µM [cytotoxic, single point]"
O=C1Nc2ccccc2C(O)(C(=O)NC2CC2)N1c1ccc(Cl)c(Cl)c1 (centres undefined),,"inconclusive: 18.4 µM [cytotoxic, single point]"
Nc1[nH]c(C(=O)c2ccccc2)c(-c2ccccc2Br)c1C(=O)NCc1ccc(-c2ccccc2)cc1,,"inconclusive: 18.4 µM [cytotoxic, partial curve]"
Cc1ccc(NC(=O)Cc2noc3ccccc23)nc1,,"inconclusive: 29.1 µM [cytotoxic, single point]"
O=C1CC(c2ccccc2)=Nc2ccc(Br)cc2N1,,active: 14.6 µM
CCOC(=O)N/N=C/c1cn(CCCOc2ccccc2)c2ccccc12,,"inconclusive: 16.4 µM [cytotoxic, single point]"
COc1cc2c(cc1OC)C(COc1ccc(C(C)C)cc1)N(C(=O)COc1ccccc1)CC2 (centres undefined),,"inconclusive: 23.1 µM [cytotoxic, single point]"
N/C(=N\OC(=O)CSc1ccccc1)c1ccncc1,,"inconclusive: 25.9 µM [rising, single point]"
COc1ccccc1NC(=O)C1CCN(c2ncnc3c2nc2n3CCCCC2)CC1,inactive: 12%,
CCN(CC)S(=O)(=O)c1ccc(C(=O)N2CCN(c3ncccn3)CC2)cc1,inactive: 19.4%,
COc1cc(-c2noc(CCC(=O)Nc3cccnc3)n2)cc(OC)c1OC,,"inconclusive: 23.1 µM [cytotoxic, partial curve]"

Compound,"activity change, negative = cytotoxicity",Potency
CCOP(=O)(OCC)C(Nc1ccccc1)c1cc(OC)ccc1OC (centres undefined),,"inconclusive: 8.2 µM [cytotoxic, partial curve]"
Cc1ccc(C2=N/C(=C\c3c(C)nn(-c4ccccc4)c3N3CCCC3)C(=O)O2)cc1,,"inconclusive: 20.6 µM [rising, single point]"
FC(F)(F)c1cnc(-n2cc[nH]c2=S)c(Cl)c1,inactive: 4.16%,
COc1ccc(OCC(=O)N2CCN(C(=O)c3ccc(OC)cc3)CC2)cc1,,"inconclusive: 23.1 µM [cytotoxic, single point]"
COc1ccc(/C=N/NC(=S)Nc2cc(S(=O)(=O)N3CCOCC3)ccc2N2CCOCC2)cc1O,,"inconclusive: 20.6 µM [cytotoxic, single point]"
CC1(C)C[C@@H]2C[C@@](C)(CN2C(=O)c2cc(COc3cccc(C(F)(F)F)c3)on2)C1,,"inconclusive: 7.31 µM [cytotoxic, partial curve]"
C=C(/C=C/c1ccc(N(C)C)cc1)c1nc2ccccc2s1,,"inconclusive: 18.4 µM [cytotoxic, partial curve]"
COc1ccc(CC2(CO)CCN(Cc3nc(C(C)C)cs3)CC2)cc1,,"inconclusive: 13 µM [cytotoxic, partial curve]"
Cc1ccc(-n2c3c(c(O)c(-c4ccccc4)c2=O)C(=O)CC(C)(C)C3)cc1,,active: 11.6 µM
Cc1ccc(C(=O)N2c3ccccc3Sc3ccccc32)cc1,,"inconclusive: 29.1 µM [cytotoxic, single point]"
O=C(COc1ccc(S(=O)(=O)NC2CCCCC2)cc1Cl)N1CCN(c2ccccc2)CC1,,active: 5.8 µM
COC(=O)CN(C)C(=O)CC1C(=O)NCCN1CC(C)(C)C (centres undefined),,"inconclusive: 18.4 µM [rising, single point]"
CCc1cc2c(Sc3nc4ccccc4s3)ncnc2s1,,"inconclusive: 29.1 µM [cytotoxic, single point]"
CCCC(=O)N1CCC1(C)C(=O)NS(=O)(=O)c1cccc(C)c1 (centres undefined),inactive: -0.987%,
COCCCNC(=O)C1CCCN(S(C)(=O)=O)C1 (centres undefined),inactive: -6.07%,
COc1ccc(COc2ncnc3ccc(Br)cc23)cc1F,,"inconclusive: 14.6 µM [cytotoxic, partial curve, poor fit]"
c1ccc(-c2nc(NCc3ccco3)c3oc4ccccc4c3n2)cc1,,"inconclusive: 16.4 µM [cytotoxic, single point]"
CCOc1ccccc1N(CC(=O)NC1CCCCC1)C(=O)c1nsc(Cl)c1Cl,,"inconclusive: 20.6 µM [cytotoxic, single point]"
CC(C(=O)NC1CCCC1)N(c1ccc(Oc2ccccc2)cc1)S(C)(=O)=O (centres undefined),,"inconclusive: 29.1 µM [cytotoxic, single point]"
CC1(C)N=C(N)N=C(N)N1c1ccc(OCC(=O)Nc2ccccc2)c(Cl)c1,,"inconclusive: 8.2 µM [rising, partial curve, poor fit]"
CN(C)c1ccc(/C=C2\C(=N)N3N=C(CC(=O)N4CCCC4)SC3=NC2=O)cc1Br,,"inconclusive: 29.1 µM [rising, single point]"
CCS(=O)(=O)c1ccc(N=Nc2ccc(O)c3ncccc23)c(OC)c1,,"inconclusive: 29.1 µM [cytotoxic, single point]"
Cc1[nH]nc(-c2ccc(O)cc2O)c1Oc1ccccc1,,"inconclusive: 23.1 µM [cytotoxic, single point]"

# Entries of single compounds from above.
# COc1ccc(CC(=O)Nc2nnc(C(C)(C)C)s2)cc1OC as listed: Potency: inconclusive: 23.1 µM [cytotoxic, single point]
# CCN(CC)S(=O)(=O)c1ccc(C(=O)N2CCN(c3ncccn3)CC2)cc1 as listed: activity change, negative = cytotoxicity: inactive: 19.4%
# COc1ccccc1OCCNC(=O)C1CC(=O)N(c2ccc3c(c2)OCCO3)C1 (centres undefined) as listed: Potency: inconclusive: 29.1 µM [cytotoxic, partial curve, poor fit]

# Reference: PubChem BioAssay AID1347076 (National Center for Advancing Translational Sciences (NCATS), 2019)
